The list shows a part of the results.

Protein sequences, listed by entry. Tags and fused reporters are not part of them.
UniProt Q0JBA9, entry or part of it: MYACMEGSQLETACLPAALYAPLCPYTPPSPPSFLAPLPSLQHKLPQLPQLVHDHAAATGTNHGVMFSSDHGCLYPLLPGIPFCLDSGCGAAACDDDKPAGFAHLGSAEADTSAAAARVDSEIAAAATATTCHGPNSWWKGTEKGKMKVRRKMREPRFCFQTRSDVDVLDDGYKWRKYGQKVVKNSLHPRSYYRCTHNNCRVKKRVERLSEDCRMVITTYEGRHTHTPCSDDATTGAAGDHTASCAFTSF

This is an account of results in article PMC7819943, “Rice protein-binding microarrays: a tool to detect cis-acting elements near promoter regions in rice”.

The target in this assay is OsWRKY34 (Oryza sativa, UniProt Q0JBA9 1-250). The assay can be described thus: protein-binding microarray (RPBM); PBS, 2% BSA, 51.3 ng/ul salmon testes DNA, 50 uM zinc acetate, 200 nM TF, 25 C, 1 h; high values mean tight binding. The conditions noted are these: protein: recombinant; tags: N-terminal polyhistidine and DsRed monomer fusion (pET32a); label: CyDye5-dUTP incorporated in the synthesized complementary strand; 3' TTTTT single-stranded linker to array surface; dsDNA, one strand shown. A digest of the protocol:
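For the binding signal, per-feature fluorescence intensity was read in arbitrary units on an Axon 4000B scanner. Before scanning, a 2% BSA-blocked custom Agilent array made double-stranded with Cy5-dUTP was washed after 1 h at 25 °C with 200 nM protein and 50 µM zinc acetate. The proteins were Ni–NTA-purified transcription factors with N-terminal polyhistidine and DsRed fusions, expressed in E. coli BL21-CodonPlus.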
Consider “ACGACGGGACGCGTTTTTTTCCCGGCTCTACCTCTGCAAGCGGAGTCACCTAGTGCAG”, for which the binding signal was 8510 fluorescence intensity (a.u.).
For “ATCCCGGCGAGCTTCTCCTTCGCGCCCGGCCGGCCGCAGCCGGAGTCACCTAGTGCAG” the value was 8560 fluorescence intensity (a.u.); for “AGTGATCGATAATCCTGCTCCTTTTTTATTACTTATTTTTCGGAGTCACCTAGTGCAG”, 8680 fluorescence intensity (a.u.).
Turning to “ATAGTACGTACTTTTTCCTTTTTCAGTATCCCTGTGGCGTCGGAGTCACCTAGTGCAG”, the binding signal was 8290 fluorescence intensity (a.u.).
“GAGCTCCTATTACACCGGGAAACGGGAGCCTTGCTTTGACCGGAGTCACCTAGTGCAG”: the binding signal is 8290 fluorescence intensity (a.u.).
“TTCTTCTTGTGTACTACTGCTACATTATATGCTTCGCCTCCGGAGTCACCTAGTGCAG”: the binding signal was 9820 fluorescence intensity (a.u.).
“AGTCTATTTTTCCTTCCTGTGCTTTGGGTAGTGCCTTATACGGAGTCACCTAGTGCAG”: the binding signal was 9480 fluorescence intensity (a.u.).
In the case of “TCCTCTTCATCGTTATCTCTATTTTCTTTCACGTTATTAGCGGAGTCACCTAGTGCAG”, the binding signal was 14100 fluorescence intensity (a.u.).
Then “GTTGCTGATTTCTTTCGCTTTCTTTTTTCGTTGCAATGCGCGGAGTCACCTAGTGCAG”, with 8050 fluorescence intensity (a.u.); and “ACTCTCATGCATATTAGTCATCAAGTTGAATTGGCCCTGACGGAGTCACCTAGTGCAG”, with 10000 fluorescence intensity (a.u.); and “ATTTCAGTTATTTTCAAATTGTATTCCTACTTGAACTCTTCGGAGTCACCTAGTGCAG”, with 8660 fluorescence intensity (a.u.).
Turning to “CAGACAGCTCGCCCTGCACACACACACACACTCACACTCACGGAGTCACCTAGTGCAG”, the binding signal is 8290 fluorescence intensity (a.u.).
For “CCATGTCGTGCTCAGCAATTTGTTTCTGCCACCGGCGGCGCGGAGTCACCTAGTGCAG”, the binding signal is 9490 fluorescence intensity (a.u.).
Consider “AGCTCCACACTTCATGTGCCAATTATTCATGGTTTCTCAACGGAGTCACCTAGTGCAG”, for which the binding signal was 9500 fluorescence intensity (a.u.).
For “ATAGCCCGCTGCTATTCTCTCTTCTTATTTATCTTATTAACGGAGTCACCTAGTGCAG”, the binding signal is 9000 fluorescence intensity (a.u.).
Then “TCTGGACTACCTGAGCGACTTGGTCTCGTCTCCTCGTCTTCGGAGTCACCTAGTGCAG”, with 10200 fluorescence intensity (a.u.).
For “CCTCTCTTTTACCCATTTTTCATTACTATTCTATAACAAACGGAGTCACCTAGTGCAG”, the binding signal was 8940 fluorescence intensity (a.u.).
As for “CGATTCCAGCGCGGTGGGGTGGGCGAGGTGCGTGGCCATGCGGAGTCACCTAGTGCAG”, the binding signal was 8560 fluorescence intensity (a.u.).
On to “ATGCCACCCGTATCTCAATGACATATAGGACCCACATGAGCGGAGTCACCTAGTGCAG”, for which the binding signal is 8780 fluorescence intensity (a.u.).
Consider “TGTTGCCTATTATATTTCGTGCATGGGCTTTCTTTTCTCGCGGAGTCACCTAGTGCAG”, for which the binding signal is 15300 fluorescence intensity (a.u.).
Then “GGTTATCACTTCCCTTAATCTCTGCTCAGGTTGTTGTTTTCGGAGTCACCTAGTGCAG”, with 8490 fluorescence intensity (a.u.).
On to “TATTTCTGACTTGTGATCTGCGAGCGCTGTGAAGGTGGGGCGGAGTCACCTAGTGCAG”, for which the binding signal was 10000 fluorescence intensity (a.u.).
As for “CATTACATTAGTCTCTTAATATCGGTTATGTCAGGGTTATCGGAGTCACCTAGTGCAG”, the binding signal is 8440 fluorescence intensity (a.u.).
Take “CTTTTCGTTGGCGTGGGTGGGAAGAAGAAGGCGAGACTTGCGGAGTCACCTAGTGCAG”: the binding signal was 9840 fluorescence intensity (a.u.).
For the sequence “ACTCTTTCGGATTTATTACCGCTTGATTGCCACACAAATTCGGAGTCACCTAGTGCAG”, the binding signal is 10200 fluorescence intensity (a.u.).
In the case of “GTTCAATTCTCGAGTTCTTGCACTATATTGCACCTACCCGCGGAGTCACCTAGTGCAG”, the binding signal is 10100 fluorescence intensity (a.u.).
In the case of “CCCACCGTTTGCCTACTTTTTATCTCCGTCCTCTTGGATTCGGAGTCACCTAGTGCAG”, the binding signal is 9560 fluorescence intensity (a.u.).
For the sequence “GACAAGTTGAGGGACCTTCGGTGTACTTTTTCCTTTTTCCCGGAGTCACCTAGTGCAG”, the binding signal is 8420 fluorescence intensity (a.u.).
Then “GAGGGAGGAAAGGGAGGTGGGGCCGGCTTGGCAGTGGCTCCGGAGTCACCTAGTGCAG”, with 9630 fluorescence intensity (a.u.); and “GCCGCTGTTGCCTCTTGCTTCGTTGTCGTCACCGCTGCCGCGGAGTCACCTAGTGCAG”, with 10600 fluorescence intensity (a.u.); and “TTACCAGAGTTACTCCGTTTTGCTTGTACAGTTTCCGGTTCGGAGTCACCTAGTGCAG”, with 9580 fluorescence intensity (a.u.).
For “CGATGGTACGGATAGATGCTGCTCTGTGTGGTTGAGGTGACGGAGTCACCTAGTGCAG”, the binding signal is 8170 fluorescence intensity (a.u.).
With “AGTGCGTCGTCGTGTCTTCTCTTTCCTCTATTTTATCACCCGGAGTCACCTAGTGCAG”, the binding signal is 8060 fluorescence intensity (a.u.).
Then “CACGTGTCCCATACGCCGTTTCACACTTTTTTTCTAGACGCGGAGTCACCTAGTGCAG”, with 8670 fluorescence intensity (a.u.).
Then “AACTATTTATCCACCACAGTCCATATATAATTGAAATTGCCGGAGTCACCTAGTGCAG”, with 9630 fluorescence intensity (a.u.).
As for “CTTCTCATACTATTTTCTTGTTTAACATGCGGAAACCAACCGGAGTCACCTAGTGCAG”, the binding signal is 8960 fluorescence intensity (a.u.).
Regarding “CCGATTCCCTCCTATATTCTCGTTTCCCGCGGCTCAACCGCGGAGTCACCTAGTGCAG”, the binding signal is 11800 fluorescence intensity (a.u.).
Turning to “TTATTTTGAGAAGATGCCCTGAACCTGATCAGGGCCGAGTCGGAGTCACCTAGTGCAG”, the binding signal was 9000 fluorescence intensity (a.u.).
Regarding “TCCTCACGCAATTTCTCGGTTTAAACTTACTCTCCCTTTCCGGAGTCACCTAGTGCAG”, the binding signal was 11900 fluorescence intensity (a.u.).
Consider “CAACACGTATAGCCTTTTCGAACATTATTCCTTTTTTTTCCGGAGTCACCTAGTGCAG”, for which the binding signal was 12300 fluorescence intensity (a.u.).
For “GTTTGCTTCTGTTTCTTTGGAACCAAATATTCTTGCCATACGGAGTCACCTAGTGCAG” the value was 8850 fluorescence intensity (a.u.).
Turning to “TCGTTCATTTTAGGTCCCTCGGTGGTTTTGACCCCAGTTTCGGAGTCACCTAGTGCAG”, the binding signal is 12500 fluorescence intensity (a.u.).
